No constants are given. Whether binding was seen depends on the method and setting. Binding seen in cells or lysates may run through a third protein. Some binding calls cover weakened binding; strength is not graded here. Where a sequence is shown, tags or fusion partners need not be part of it.
Biological target: T1, EGFP-tagged human SEMA6B, wild type (pEGFP-C1-human SEMA6B) (human) (UniProt Q9H3T3)
T1 sequence: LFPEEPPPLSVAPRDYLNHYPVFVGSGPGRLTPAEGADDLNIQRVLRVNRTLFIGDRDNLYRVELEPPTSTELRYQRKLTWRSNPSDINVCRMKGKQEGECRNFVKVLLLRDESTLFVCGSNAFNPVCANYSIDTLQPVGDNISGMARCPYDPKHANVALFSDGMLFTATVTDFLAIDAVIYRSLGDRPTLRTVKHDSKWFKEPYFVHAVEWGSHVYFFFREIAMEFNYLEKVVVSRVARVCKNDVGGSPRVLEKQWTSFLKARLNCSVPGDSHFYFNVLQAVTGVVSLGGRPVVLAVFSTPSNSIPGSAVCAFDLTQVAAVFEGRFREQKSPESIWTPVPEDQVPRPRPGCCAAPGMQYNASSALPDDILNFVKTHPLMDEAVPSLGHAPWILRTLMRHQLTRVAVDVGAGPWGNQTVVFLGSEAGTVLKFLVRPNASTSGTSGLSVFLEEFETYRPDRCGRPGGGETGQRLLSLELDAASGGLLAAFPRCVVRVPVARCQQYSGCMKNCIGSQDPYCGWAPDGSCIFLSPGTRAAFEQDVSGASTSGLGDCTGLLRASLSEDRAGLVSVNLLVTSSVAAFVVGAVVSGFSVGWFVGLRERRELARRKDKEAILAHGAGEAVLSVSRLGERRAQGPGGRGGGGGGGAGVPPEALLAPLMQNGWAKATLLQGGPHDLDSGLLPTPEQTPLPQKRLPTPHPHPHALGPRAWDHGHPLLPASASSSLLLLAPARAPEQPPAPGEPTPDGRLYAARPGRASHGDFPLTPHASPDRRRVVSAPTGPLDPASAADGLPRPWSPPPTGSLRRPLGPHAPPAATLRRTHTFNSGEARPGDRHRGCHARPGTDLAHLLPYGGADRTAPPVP
Assay: co-IP; HEK-293T cells co-transfected with Myc-tagged PlxnA2 and EGFP-tagged SEMA6B; lysed after 48 h in NP-40 buffer (50 mM Tris pH 7.4, 150 mM NaCl, 1% NP-40); IP with anti-GFP antibody overnight at 4°C, protein A/G agarose beads, five washes with RIPA buffer; blot with anti-Myc; densitometry normalised to GFP, N = 3

By UniProt entry, the sequences of proteins in these tests, tags left out. Residues count along the entry.
UniProt O75051, residues 35-1894: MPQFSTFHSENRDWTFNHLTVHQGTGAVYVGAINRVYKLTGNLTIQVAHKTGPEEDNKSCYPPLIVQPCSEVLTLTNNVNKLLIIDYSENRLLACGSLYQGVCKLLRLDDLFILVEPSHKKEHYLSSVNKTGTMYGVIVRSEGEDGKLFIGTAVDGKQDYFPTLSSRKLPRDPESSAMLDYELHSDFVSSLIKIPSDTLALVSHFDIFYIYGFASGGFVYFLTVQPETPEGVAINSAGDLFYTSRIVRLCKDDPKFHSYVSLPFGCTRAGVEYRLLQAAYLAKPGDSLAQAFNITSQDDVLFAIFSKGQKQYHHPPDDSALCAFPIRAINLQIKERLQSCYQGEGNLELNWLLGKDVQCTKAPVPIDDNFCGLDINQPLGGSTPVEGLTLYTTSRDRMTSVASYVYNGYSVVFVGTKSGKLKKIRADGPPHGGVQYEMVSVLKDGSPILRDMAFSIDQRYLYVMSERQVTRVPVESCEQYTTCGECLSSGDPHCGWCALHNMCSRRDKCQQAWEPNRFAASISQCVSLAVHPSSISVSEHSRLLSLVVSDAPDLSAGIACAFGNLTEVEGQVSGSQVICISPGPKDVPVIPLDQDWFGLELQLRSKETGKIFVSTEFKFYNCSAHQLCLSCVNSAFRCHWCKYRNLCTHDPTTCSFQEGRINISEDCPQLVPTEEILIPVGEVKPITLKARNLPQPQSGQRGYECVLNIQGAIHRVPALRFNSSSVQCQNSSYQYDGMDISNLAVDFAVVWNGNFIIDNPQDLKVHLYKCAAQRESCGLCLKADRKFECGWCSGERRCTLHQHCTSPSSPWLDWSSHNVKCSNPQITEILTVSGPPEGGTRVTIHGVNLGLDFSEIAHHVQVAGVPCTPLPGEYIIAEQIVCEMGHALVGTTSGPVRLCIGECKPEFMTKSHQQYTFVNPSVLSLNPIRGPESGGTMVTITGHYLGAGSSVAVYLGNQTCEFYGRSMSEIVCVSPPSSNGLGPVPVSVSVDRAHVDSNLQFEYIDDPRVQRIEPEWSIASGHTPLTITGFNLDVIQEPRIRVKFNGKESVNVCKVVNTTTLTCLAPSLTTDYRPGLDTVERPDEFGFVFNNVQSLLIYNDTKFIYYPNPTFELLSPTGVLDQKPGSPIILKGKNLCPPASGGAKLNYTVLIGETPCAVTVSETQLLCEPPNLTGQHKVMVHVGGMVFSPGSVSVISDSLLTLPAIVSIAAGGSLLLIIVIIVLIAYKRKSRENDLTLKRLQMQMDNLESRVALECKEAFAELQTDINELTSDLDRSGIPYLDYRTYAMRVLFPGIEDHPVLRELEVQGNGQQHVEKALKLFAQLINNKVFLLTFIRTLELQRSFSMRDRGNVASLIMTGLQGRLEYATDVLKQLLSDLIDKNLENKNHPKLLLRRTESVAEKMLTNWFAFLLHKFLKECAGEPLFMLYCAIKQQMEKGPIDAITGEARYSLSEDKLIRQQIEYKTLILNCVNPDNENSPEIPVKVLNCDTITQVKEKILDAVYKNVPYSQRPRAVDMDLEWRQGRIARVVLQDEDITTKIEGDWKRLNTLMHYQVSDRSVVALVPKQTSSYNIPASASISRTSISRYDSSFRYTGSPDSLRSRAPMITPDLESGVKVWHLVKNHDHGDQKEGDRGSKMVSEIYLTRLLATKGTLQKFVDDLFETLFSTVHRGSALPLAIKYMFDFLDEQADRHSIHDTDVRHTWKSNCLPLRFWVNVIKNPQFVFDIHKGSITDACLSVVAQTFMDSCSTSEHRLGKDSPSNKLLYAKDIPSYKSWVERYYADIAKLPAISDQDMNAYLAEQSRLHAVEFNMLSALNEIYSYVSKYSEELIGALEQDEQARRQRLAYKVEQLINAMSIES

binding: binds
Substance: Myc-DDK-tagged human plexin A2 (from UniProt O75051 35-1894) (receptor)

Source: publication PMC8129541
